The values below come from patent publication US10899639B2, “Composition and method for inhibiting microbial adhesion on surfaces” (SOLENIS TECHNOLOGIES, L.P., priority 2017, dated 2021).

The nature of this data set: foaming potential, shaken capped graduated cylinder test. It is filed as physicochemical. Particulars: 100 mL test solution in 250 mL cylinder, 30 ppm active LAS.

For “sodium dodecylbenzene sulfonate [Biosoft D-40]”, the “volume of the foam” value is, setting by setting: (0 min after 40 inversions) 140; (1 min after 40 inversions) 137; (3 min after 40 inversions) 136.
